Measurements: paper PMC10403255, “Two RNA-binding proteins mediate the sorting of miR223 from mitochondria into exosomes”
Results are given in words; binding and its absence hold for the method and conditions named. In cells and extracts the contact can be indirect. Some binding calls cover weakened binding; strength is not graded here.

Amino acid sequences for entries named in this document (tags omitted). Residues count along the entry.
UniProt P67809: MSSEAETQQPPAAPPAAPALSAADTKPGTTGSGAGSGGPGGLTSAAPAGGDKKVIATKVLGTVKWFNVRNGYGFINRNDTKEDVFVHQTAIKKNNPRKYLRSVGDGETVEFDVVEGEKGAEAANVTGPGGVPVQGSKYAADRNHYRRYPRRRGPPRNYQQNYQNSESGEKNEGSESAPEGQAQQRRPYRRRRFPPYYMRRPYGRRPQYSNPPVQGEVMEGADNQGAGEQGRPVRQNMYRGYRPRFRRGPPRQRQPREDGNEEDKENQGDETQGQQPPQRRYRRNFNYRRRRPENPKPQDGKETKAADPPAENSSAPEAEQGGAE
UniProt Q07021, residues 74-282: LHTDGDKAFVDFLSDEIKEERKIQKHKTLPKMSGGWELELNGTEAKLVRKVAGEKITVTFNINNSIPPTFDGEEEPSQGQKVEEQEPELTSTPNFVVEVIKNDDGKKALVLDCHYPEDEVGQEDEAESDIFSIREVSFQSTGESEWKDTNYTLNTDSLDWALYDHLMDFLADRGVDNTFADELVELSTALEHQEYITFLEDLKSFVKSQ

Legend:
His-MBP-YBX1 = His-MBP-YBX1 (UniProt P67809); assay: pull-down; His-MBP-YBX1 coexpressed with untagged YBAP1 in Sf9 cells; lysate with Benzonase, 0.5 M KCl; Ni-NTA, then amylose resin, then gel filtration (Superdex-200); gel of the copurified proteins
[1] = biological target: Twin Strep tag hybrid YBX1 (UniProt P67809); assay: pull-down; Twin Strep-tagged YBX1 overexpressed in HEK293T; lysate on Strep-Tactin Sepharose, wash with 500 mM NaCl, elution with desthiobiotin, gel filtration (Superdex-200); copurified band seen by Coomassie blue and identified by immunoblot

Row | binding (His-MBP-YBX1) | binding [1] | Substance
1 | binds | – | untagged YBAP1 (from UniProt Q07021 74-282)
2 | – | binds | YBAP1 (endogenous, HEK293T) (from UniProt Q07021 74-282)
